Earlier results in patent US8555875B2, “Inhalation devices and related methods for administration of sedative hypnotic compounds” (Map Pharmaceuticals, Inc., priority 2008, dated 2013).
At least one structure is not confirmed: it was looked up by name or label, or the drawing left a doubt.

Conditions: in vivo

SMILES	Duration of Action
CNC1=Nc2ccc(Cl)cc2C(c2ccccc2)=[N+]([O-])C1 [Chlordiazepoxide]	24 to 28 h
O=C1Nc2ccc(Cl)cc2C(c2ccccc2)=NC1O (centres unmarked) [Oxazepam]	12 to 18 h
